In US20090074663A1:
These are yes or no findings as the source states them, for the method shown. Some binding calls cover weakened binding; strength is not graded here.

Sequences of proteins named here, by UniProt entry; tags and fusion partners are left off. Residues count along the entry.
UniProt P24394, residues 26-825: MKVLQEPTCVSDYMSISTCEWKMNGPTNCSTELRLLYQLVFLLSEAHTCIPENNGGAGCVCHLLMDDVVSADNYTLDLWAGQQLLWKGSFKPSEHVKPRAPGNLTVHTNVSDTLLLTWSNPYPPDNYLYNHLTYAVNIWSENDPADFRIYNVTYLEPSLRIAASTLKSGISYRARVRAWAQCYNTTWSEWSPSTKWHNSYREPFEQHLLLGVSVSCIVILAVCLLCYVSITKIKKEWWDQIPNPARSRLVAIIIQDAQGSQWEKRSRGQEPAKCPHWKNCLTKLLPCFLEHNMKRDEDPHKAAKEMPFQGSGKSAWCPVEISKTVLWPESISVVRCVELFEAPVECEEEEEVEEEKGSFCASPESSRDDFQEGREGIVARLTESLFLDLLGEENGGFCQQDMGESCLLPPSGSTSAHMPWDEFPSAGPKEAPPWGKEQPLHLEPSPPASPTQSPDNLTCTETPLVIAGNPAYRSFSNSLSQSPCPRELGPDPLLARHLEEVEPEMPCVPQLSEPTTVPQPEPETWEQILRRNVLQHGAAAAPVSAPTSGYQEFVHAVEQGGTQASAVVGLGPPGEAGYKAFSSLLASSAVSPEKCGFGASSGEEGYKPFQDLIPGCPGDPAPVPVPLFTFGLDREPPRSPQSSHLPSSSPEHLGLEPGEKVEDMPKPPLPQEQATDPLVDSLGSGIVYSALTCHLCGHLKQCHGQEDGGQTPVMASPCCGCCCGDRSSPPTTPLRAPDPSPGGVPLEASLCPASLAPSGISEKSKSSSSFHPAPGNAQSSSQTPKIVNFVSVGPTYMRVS

Assays:
[1] = molecular target: interleukin-4 receptor (IL-4R) (UniProt P24394); assay: fluorescence microscopy, 10 µM peptide on CHO-K1 cells expressing IL-4R; IL-4R-deficient CHO-K1 cells showed no peptide fluorescence
[2] = molecular target: interleukin-4 receptor (IL-4R) (UniProt P24394); assay: fluorescence microscopy on HT-1376 cells with endogenous IL-4R, compared with IL-4R siRNA knock-down and mock siRNA
[3] = molecular target: interleukin-4 receptor (IL-4R) (UniProt P24394); assay: fluorescence microscopy on cells with artificial expression or removal of IL-4R (FIGS. 6 and 7)
[4] = molecular target: interleukin-4 receptor (IL-4R) (UniProt P24394); assay: fluorescence microscopy, legend of FIG. 6

Measured: binding

CRKRLDRNC (FITC (fluorescein isothiocyanate) on the N-terminus) [FITC-… peptide]
binds: all assays above
